Measurements taken from patent publication US20110070246A1 (F HOFFMANN LAROCHE, published 2011).
Results are given in words; binding and its absence hold for the method and conditions named. Some entries that bind do so weakly or less than the wild type.

Legend:
[1] = molecular target: T1, Soluble extracellular domain (ECD) of human CDCP1 (human) (UniProt Q9H5V8); test: Biacore competition, competitor immobilized CUB4
T1 sequence: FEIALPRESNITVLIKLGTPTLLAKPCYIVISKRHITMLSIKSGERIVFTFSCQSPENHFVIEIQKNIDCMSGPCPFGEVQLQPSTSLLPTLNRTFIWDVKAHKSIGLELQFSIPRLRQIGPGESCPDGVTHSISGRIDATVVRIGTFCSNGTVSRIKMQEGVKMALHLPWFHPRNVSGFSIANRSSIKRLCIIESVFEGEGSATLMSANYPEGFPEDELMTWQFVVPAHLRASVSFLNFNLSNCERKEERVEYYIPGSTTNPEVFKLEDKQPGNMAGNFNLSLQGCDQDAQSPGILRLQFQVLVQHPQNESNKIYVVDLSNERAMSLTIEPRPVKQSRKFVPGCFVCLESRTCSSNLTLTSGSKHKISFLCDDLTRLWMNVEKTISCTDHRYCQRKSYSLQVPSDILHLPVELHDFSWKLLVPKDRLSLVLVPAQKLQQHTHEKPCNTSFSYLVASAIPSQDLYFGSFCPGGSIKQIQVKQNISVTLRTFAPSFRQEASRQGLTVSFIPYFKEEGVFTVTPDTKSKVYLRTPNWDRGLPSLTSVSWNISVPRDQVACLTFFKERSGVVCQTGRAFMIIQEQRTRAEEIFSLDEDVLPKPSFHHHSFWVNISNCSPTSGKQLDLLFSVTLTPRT

[2] = molecular target: T1, Soluble extracellular domain (ECD) of human CDCP1 (human); test: Biacore sensorgram, immobilized CUB4, ECD of CDCP1
[3] = molecular target: T1, Soluble extracellular domain (ECD) of human CDCP1 (human); test: ELISA, SBP-tagged construct captured on streptavidin plate
[4] = molecular target: T1, Soluble extracellular domain (ECD) of human CDCP1 (human); test: Biacore sandwich on antigen captured by Mab CUB1 or Mab CUB3 (data not shown)

Measured: binding

B1: Mab CDCP1-015 (antibody, V domains shown)
VH: QVHLKQSGPGLVQPSQSLSITCTVSGFSLTNFGLHWVRQSPGKGLEWLGVIWSGGVTDYNAAFISRLSISKDNSKSQVFFKMNSLQPNDTAIYYCARNYDHDYSMDYWGQGISVSVSS
VL: DVVLTQTPLSLPVIIGDQASISCKSTKSLLNSAGFTYLGWYLQKPGQSPQLLIYLVSNRFSGVPDRFSGSGSGTDFTLKISRVEAEDLGVYFCFQSSYLPLTFGSGTKLEIK
notes: also called CDCP1-0015; Murine CDCP1-015
binds: all assays above
